Measured values taken from paper PMC7693736.
These are yes or no findings as the source states them, for the method shown. Binding seen in cells or lysates may run through a third protein. Some entries that bind do so weakly or less than the wild type. For some assays here: Sequences can lack the tags named with a protein.

Sequences of proteins named here, by UniProt entry; tags and fusion partners are left off.
UniProt O88597: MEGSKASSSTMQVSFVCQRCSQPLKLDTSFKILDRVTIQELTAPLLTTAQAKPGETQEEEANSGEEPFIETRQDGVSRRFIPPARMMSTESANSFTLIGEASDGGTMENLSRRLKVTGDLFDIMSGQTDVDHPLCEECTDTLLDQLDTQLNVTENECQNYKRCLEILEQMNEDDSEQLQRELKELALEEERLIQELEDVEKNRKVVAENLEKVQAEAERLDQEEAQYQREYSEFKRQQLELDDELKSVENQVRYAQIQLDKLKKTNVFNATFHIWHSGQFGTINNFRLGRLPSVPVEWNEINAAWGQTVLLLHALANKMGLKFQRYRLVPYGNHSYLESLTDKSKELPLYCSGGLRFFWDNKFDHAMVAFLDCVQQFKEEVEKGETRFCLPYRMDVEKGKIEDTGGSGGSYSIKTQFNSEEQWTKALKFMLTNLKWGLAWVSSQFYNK
UniProt Q14457: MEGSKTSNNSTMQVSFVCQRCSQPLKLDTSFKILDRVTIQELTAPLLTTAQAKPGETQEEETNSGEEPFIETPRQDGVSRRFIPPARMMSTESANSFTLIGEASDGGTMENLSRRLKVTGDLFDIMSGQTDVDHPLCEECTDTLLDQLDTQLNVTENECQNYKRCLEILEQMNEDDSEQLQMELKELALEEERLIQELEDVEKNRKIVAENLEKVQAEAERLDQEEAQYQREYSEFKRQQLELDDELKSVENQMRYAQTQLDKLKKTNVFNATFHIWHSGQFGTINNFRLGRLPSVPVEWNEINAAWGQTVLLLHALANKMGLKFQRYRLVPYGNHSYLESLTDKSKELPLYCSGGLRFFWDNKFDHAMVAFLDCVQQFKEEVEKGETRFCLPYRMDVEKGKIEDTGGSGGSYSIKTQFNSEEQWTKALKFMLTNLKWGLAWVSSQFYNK

Columns and labels:
[1] = target: Beclin 1, endogenous in mouse heart (mouse (endogenous in heart)) (UniProt O88597); assay: co-IP; heart lysates of WT mice fed with or without empagliflozin for 7 days; immunoprecipitated with Beclin 1 antibody, blotted with TLR9 antibodies recognising full-length 130 kDa or cleaved 53 kDa form
Beclin 1-HA = Beclin 1-HA (UniProt Q14457); assay: co-IP; Flag-TLR9 or its fragments coexpressed with Beclin 1-HA in 293 cells (legend; the text says H9c2 for the full-length pair), with or without empagliflozin (200 nM); anti-HA or anti-Flag immunoprecipitates analysed by western blot

binding [1]	binding (Beclin 1-HA)	Binder
binds		full-length TLR9 (130 kDa), endogenous in mouse heart (receptor, UniProt Q9EQU3 26-1032) LGTLPAFLPCELKPHGLVDCNWLFLKSVPRFSAAASCSNITRLSLISNRIHHLHNSDFVHLSNLRQLNLKWNCPPTGLSPLHFSCHMTIEPRTFLAMRTLEELNLSYNGITTVPRLPSSLVNLSLSHTNILVLDANSLAGLYSLRVLFMDGNCYYKNPCTGAVKVTPGALLGLSNLTHLSLKYNNLTKVPRQLPPSLEYLLVSYNLIVKLGPEDLANLTSLRVLDVGGNCRRCDHAPNPCIECGQKSLHLHPETFHHLSHLEGLVLKDSSLHTLNSSWFQGLVNLSVLDLSENFLYESITHTNAFQNLTRLRKLNLSFNYRKKVSFARLHLASSFKNLVSLQELNMNGIFFRLLNKYTLRWLADLPKLHTLHLQMNFINQAQLSIFGTFRALRFVDLSDNRISGPSTLSEATPEEADDAEQEELLSADPHPAPLSTPASKNFMDRCKNFKFTMDLSRNNLVTIKPEMFVNLSRLQCLSLSHNSIAQAVNGSQFLPLTNLQVLDLSHNKLDLYHWKSFSELPQLQALDLSYNSQPFSMKGIGHNFSFVTHLSMLQSLSLAHNDIHTRVSSHLNSNSVRFLDFSGNGMGRMWDEGGLYLHFFQGLSGLLKLDLSQNNLHILRPQNLDNLPKSLKLLSLRDNYLSFFNWTSLSFLPNLEVLDLAGNQLKALTNGTLPNGTLLQKLDVSSNSIVSVVPAFFALAVELKEVNLSHNILKTVDRSWFGPIVMNLTVLDVRSNPLHCACGAAFVDLLLEVQTKVPGLANGVKCGSPGQLQGRSIFAQDLRLCLDEVLSWDCFGLSLLAVAVGMVVPILHHLCGWDVWYCFHLCLAWLPLLARSRRSAQTLPYDAFVVFDKAQSAVADWVYNELRVRLEERRGRRALRLCLEDRDWLPGQTLFENLWASIYGSRKTLFVLAHTDRVSGLLRTSFLLAQQRLLEDRKDVVVLVILRPDAHRSRYVRLRQRLCRQSVLFWPQQPNGQGGFWAQLSTALTRDNRHFYNQNFCRGPTAE
	no binding	Flag-tagged TLR9 with only TIR domain (TIR) (domain or fragment, UniProt Q9NR96 868-1013) LPYDAFVVFDKTQSAVADWVYNELRGQLEECRGRWALRLCLEERDWLPGKTLFENLWASVYGSRKTLFVLAHTDRVSGLLRASFLLAQQRLLEDRKDVVVLVILSPDGRRSRYVRLRQRLCRQSVLLWPHQPSGQRSFWAQLGMAL
